The series in a line: Radiolabeling of ligands G with yttrium 90 (radiolabeling yield). The conditions noted are these: yttrium-90 chloride in acetate buffer pH=7 + ligand 10^-3 mol/L in ethanol, 90° C., 30 min. On the procedure: “Radiolabeling yield” means the amount of radioactivity present in the form of a complex after the step of radiolabeling a ligand. This amount is expressed as a percentage of the radioactivity initially used expressed in curie or in becquerel.
Quality controls were performed by TLC on Whatman 1 paper, with MeOH/NEt3 0.1% mixture as eluent. The RadioChemical Purity (RCP) is determined using a Cyclone phosphoimager (Perkin Elmer), and processed with Optiquant software.
1 mL of yttrium-90 chloride in solution in an acetate buffer pH=7 is added to 1 mL of ligand G in solution in ethanol at a concentration of 10^−3 mol/L. The solution is heated at 90° C. for 30 min. The yttrium 90 complex J is thus obtained.

With `CCCCCCCCCCC(C(=O)O)N1CCN(Cc2cc(C(C)(C)C)cc(C(C)(C)C)c2)CCN(C(CCCCCCCCCC)C(=O)O)CCN(C(CCCCCCCCCC)C(=O)O)CC1` (stereo not drawn) [Ligand G1iso2], the Radiolabeling yield is 94.4%.

Take `CCCCCCCCC(C(=O)O)N1CCN(Cc2cc(C(F)(F)F)cc(C(F)(F)F)c2)CCN(C(CCCCCCCC)C(=O)O)CCN(C(CCCCCCCC)C(=O)O)CC1` (stereo not drawn) [Ligand G4]: the Radiolabeling yield came out at 96%.

Take `CCCCCCCCC(C(=O)O)N1CCN(Cc2ccc(CCc3ccccc3)cc2)CCN(C(CCCCCCCC)C(=O)O)CCN(C(CCCCCCCC)C(=O)O)CC1` (stereo not drawn) [Ligand G5]: the Radiolabeling yield is 98.7%.

As for `CCCCCCCCCCC(C(=O)O)N1CCN(Cc2cc(C(C)(C)C)cc(C(C)(C)C)c2)CCN(C(CCCCCCCCCC)C(=O)O)CCN(C(CCCCCCCCCC)C(=O)O)CC1` (stereo not drawn) [Ligand G1iso4], the Radiolabeling yield worked out at 95.5%.

In the case of `CCCCCCCCc1ccc(-c2ccc(CCN3CCN(C(CCCCCCCC)C(=O)O)CCN(C(CCCCCCCC)C(=O)O)CCN(C(CCCCCCCC)C(=O)O)CC3)cc2)cc1` (stereo not drawn) [Ligand G12], the Radiolabeling yield was determined as 35.7%.

With `CCCCCCCCC(C(=O)O)N1CCN(CCc2ccc(-c3ccc(CCCCC)cc3)cc2)CCN(C(CCCCCCCC)C(=O)O)CCN(C(CCCCCCCC)C(=O)O)CC1` (stereo not drawn) [Ligand G11], the Radiolabeling yield came to 76.5%.

In the case of `CCCCCCCCC(C(=O)O)N1CCN(Cc2ccc(-c3ccccc3)cc2)CCN(C(CCCCCCCC)C(=O)O)CCN(C(CCCCCCCC)C(=O)O)CC1` (stereo not drawn) [Ligand G6], the Radiolabeling yield is 97.9%.

`CCCCCCC(C(=O)O)N1CCN(Cc2ccc(CCc3ccccc3)cc2)CCN(C(CCCCCC)C(=O)O)CCN(C(CCCCCC)C(=O)O)CC1` (stereo not drawn) [Ligand G9]: the Radiolabeling yield is given as 82.3%.

Regarding `CCCCCCCCc1ccc(CN2CCN(C(CCCCCCCC)C(=O)O)CCN(C(CCCCCCCC)C(=O)O)CCN(C(CCCCCCCC)C(=O)O)CC2)cc1` (stereo not drawn) [Ligand G7], the Radiolabeling yield is recorded as 36.3%.

With `CCCCCCCCC(C(=O)O)N1CCN(Cc2cc(C(C)(C)C)cc(C(C)(C)C)c2)CCN(C(CCCCCCCC)C(=O)O)CCN(C(CCCCCCCC)C(=O)O)CC1` (stereo not drawn) [Ligand G3], the Radiolabeling yield is given as 97.4%.

For `O=C(O)C(CCc1ccccc1)N1CCN(Cc2ccc(-c3ccccc3)cc2)CCN(C(CCc2ccccc2)C(=O)O)CCN(C(CCc2ccccc2)C(=O)O)CC1` (stereo not drawn) [Ligand G10], the Radiolabeling yield is 90%.

Turning to `CCCCCCCCCCC(C(=O)O)N1CCN(Cc2cc(C(C)(C)C)cc(C(C)(C)C)c2)CCN(C(CCCCCCCCCC)C(=O)O)CCN(C(CCCCCCCCCC)C(=O)O)CC1` (stereo not drawn) [Ligand G1iso3], the Radiolabeling yield was 81.5%.

Turning to `CCCCCCCCCCC(C(=O)O)N1CCN(Cc2cc(C(C)(C)C)cc(C(C)(C)C)c2)CCN(C(CCCCCCCCCC)C(=O)O)CCN(C(CCCCCCCCCC)C(=O)O)CC1` (stereo not drawn) [Ligand G1iso1], the Radiolabeling yield amounted to 89%.

Regarding `CCCCCCCCc1ccc(CN2CCN(C(CCCCCC)C(=O)O)CCN(C(CCCCCC)C(=O)O)CCN(C(CCCCCC)C(=O)O)CC2)cc1` (stereo not drawn) [Ligand G8], the Radiolabeling yield worked out at 78.8%.

On to `CCCCCCCCCCC(C(=O)O)N1CCN(Cc2ccc(CCCCCCCC)cc2)CCN(C(CCCCCCCCCC)C(=O)O)CCN(C(CCCCCCCCCC)C(=O)O)CC1` (stereo not drawn) [Ligand G2], for which the Radiolabeling yield turned out to be 14.1%.

The values above are taken from patent US11261166B2, “Lipophilic macrocyclic ligands, complexes thereof, and uses of same” (GUERBET, priority 2017, dated 2022).
